Publication doi:10.1101/2020.05.13.094185
These are yes or no findings as the source states them, for the method shown. For some of these results: Binding seen in cells or lysates may run through a third protein. Some entries that bind do so weakly or less than the wild type.

Sequences of proteins named here, by UniProt entry; tags and fusion partners are left off.
UniProt P33674: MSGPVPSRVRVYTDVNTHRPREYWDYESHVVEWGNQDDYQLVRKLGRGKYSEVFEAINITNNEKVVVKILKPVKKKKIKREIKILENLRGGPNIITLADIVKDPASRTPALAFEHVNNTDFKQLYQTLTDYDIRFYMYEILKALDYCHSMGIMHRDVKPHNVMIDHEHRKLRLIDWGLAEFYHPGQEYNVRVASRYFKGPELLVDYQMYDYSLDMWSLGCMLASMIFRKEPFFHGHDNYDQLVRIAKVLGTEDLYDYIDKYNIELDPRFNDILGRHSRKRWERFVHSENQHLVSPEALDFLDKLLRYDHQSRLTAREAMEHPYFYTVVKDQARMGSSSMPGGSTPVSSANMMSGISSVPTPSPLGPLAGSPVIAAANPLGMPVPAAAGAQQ
UniProt G1TVT0: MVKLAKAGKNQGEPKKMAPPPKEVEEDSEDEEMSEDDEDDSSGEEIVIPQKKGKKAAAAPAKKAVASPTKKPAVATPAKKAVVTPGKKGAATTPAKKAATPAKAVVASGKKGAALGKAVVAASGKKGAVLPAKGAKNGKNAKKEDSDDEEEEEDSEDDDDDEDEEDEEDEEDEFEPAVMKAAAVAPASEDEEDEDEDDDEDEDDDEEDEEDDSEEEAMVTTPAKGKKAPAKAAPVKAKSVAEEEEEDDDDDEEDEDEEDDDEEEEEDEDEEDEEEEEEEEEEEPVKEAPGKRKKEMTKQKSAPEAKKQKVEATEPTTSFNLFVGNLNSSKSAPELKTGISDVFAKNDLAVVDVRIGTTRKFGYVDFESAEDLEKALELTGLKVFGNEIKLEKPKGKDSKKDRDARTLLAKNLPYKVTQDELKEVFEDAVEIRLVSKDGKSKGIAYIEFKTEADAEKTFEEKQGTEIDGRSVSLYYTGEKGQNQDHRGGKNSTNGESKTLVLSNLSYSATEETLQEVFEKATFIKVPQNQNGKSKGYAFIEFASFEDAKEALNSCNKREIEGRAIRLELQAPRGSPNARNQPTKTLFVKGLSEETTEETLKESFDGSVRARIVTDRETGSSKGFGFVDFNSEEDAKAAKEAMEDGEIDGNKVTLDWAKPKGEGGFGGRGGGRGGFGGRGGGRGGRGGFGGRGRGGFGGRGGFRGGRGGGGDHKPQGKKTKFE

What was measured:
[1] = target: CSNK2A1, myc or Flag fusion (rabbit) (UniProt P33674); experiment: co-IP
[2] = target: HnRNPK, myc or Flag fusion (rabbit) (UniProt O19049); experiment: co-IP
[3] = target: CSNK2A1, mammalian two-hybrid fusion (rabbit) (UniProt P33674); experiment: two-hybrid
[4] = target: HnRNPK, mammalian two-hybrid fusion (rabbit) (UniProt O19049); experiment: two-hybrid

NCL-Flag (from UniProt G1TVT0 1-721)
binding [1]: binds
binding [2]: binds

NCL, mammalian two-hybrid fusion (from UniProt G1TVT0 1-721)
binding [3]: binds
binding [4]: binds
